Patent US6800775B1, “Metal complexes of tripodal ligands” (Ciba Specialty Chemicals Corporation, priority 1999, dated 2004)

How the values were obtained:
[1] = Dye damage on coloured laundry (dye loss after fivefold treatment)
[2] = Fibre damage on dyed materials (relative DP reduction after fivefold treatment)
[3] = Direct Blue 085, catalyst 50 μmol/l
[4] = Reactive Black 005, catalyst 50 μmol/l
[5] = Reactive Brown 017, catalyst 50 μmol/l
[6] = Reactive Red 123, catalyst 50 μmol/l
[7] = Vat Blue 004, catalyst 50 μmol/l
[8] = Vat Brown 001, catalyst 50 μmol/l

Work on `CC(=O)N(CCN(C(C)=O)C(C)=O)C(C)=O` [TAED, N,N,N′,N′-tetraacetylethylenediamine] yielded a Dye loss % [1, 3] of 15%, a Dye loss % [1, 4] of 25% and a Dye loss % [1, 5] of 15%. The Dye loss % [1, 6] was 10%, the Dye loss % [1, 7] was 5% and the Dye loss % [1, 8] was 5%. For the same compound, the “relative DP reduction %” value [2, 3] was 5%, the “relative DP reduction %” value [2, 4] was 5% and the “relative DP reduction %” value [2, 5] was 15%. For the same compound, the “relative DP reduction %” value [2, 6] was 0%, the “relative DP reduction %” value [2, 7] was 0% and the “relative DP reduction %” value [2, 8] was 5%.
